Data from paper PMC4230356.
Results are given in words; binding and its absence hold for the method and conditions named. Binding seen in cells or lysates may run through a third protein. Some entries that bind do so weakly or less than the wild type. For part of these data: Sequences can lack the tags named with a protein.

Protein sequences, listed by entry. Tags and fused reporters are not part of them.
UniProt P08047: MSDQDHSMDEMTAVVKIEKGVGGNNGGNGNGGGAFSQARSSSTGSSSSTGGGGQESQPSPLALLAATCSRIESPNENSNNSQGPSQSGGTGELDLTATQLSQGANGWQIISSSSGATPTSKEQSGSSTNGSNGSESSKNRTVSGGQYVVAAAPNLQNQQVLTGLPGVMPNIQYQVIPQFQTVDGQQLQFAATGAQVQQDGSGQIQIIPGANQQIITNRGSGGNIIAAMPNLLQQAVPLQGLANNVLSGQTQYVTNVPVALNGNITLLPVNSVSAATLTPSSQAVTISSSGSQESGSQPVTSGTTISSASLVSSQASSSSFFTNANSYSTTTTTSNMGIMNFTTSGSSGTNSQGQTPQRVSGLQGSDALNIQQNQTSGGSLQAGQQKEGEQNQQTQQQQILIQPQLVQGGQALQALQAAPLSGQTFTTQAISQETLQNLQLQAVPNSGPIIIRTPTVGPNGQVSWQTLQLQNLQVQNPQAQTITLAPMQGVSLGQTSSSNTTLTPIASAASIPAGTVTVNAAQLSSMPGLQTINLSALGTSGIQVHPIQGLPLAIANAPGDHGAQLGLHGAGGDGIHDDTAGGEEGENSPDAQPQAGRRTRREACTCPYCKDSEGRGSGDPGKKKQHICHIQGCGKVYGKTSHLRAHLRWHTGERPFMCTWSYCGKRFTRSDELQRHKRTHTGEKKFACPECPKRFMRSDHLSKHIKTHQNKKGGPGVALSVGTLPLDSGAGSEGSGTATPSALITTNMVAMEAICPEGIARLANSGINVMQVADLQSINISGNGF
UniProt P20226: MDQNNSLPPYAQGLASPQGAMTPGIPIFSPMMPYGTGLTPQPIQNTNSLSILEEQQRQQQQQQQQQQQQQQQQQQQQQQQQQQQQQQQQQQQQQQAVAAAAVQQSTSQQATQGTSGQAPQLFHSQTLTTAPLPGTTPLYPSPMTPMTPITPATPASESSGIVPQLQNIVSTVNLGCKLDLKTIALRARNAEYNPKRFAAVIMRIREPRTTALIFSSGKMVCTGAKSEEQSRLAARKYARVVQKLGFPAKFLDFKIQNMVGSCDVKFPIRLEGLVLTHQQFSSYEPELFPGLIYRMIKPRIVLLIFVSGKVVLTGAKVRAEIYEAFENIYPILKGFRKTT

Assays:
Assay in all cases: pull-down; HaloTag bait fusion (in vitro translated) mixed with [35S]-methionine labeled prey (in vitro translated) for 1 h at RT; captured on HaloLink resin for 90 min at 4°C in 100 mM Tris pH 7.6, 150 mM NaCl, 0.05% IGEPAL; washed with buffer containing 1 mg/ml BSA; 12% SDS-PAGE; TNT mix without bait as negative control
[1] = target: T1, Ets-1, HaloTag bait fusion protein (UniProt P14921)
T1 sequence: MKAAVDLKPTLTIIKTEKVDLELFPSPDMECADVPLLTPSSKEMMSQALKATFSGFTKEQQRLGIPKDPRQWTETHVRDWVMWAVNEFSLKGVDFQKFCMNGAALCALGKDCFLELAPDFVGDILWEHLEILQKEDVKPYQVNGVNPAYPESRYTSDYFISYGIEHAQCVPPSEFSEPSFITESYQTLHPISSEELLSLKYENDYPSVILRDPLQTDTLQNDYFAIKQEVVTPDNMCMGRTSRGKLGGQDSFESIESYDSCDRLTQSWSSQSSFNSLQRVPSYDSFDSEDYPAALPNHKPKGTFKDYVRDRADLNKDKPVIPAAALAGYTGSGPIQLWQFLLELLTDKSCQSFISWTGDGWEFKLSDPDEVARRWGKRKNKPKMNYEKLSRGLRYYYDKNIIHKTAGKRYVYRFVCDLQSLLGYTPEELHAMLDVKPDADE

[2] = target: T2, BORIS (Brother of the Regulator of Imprinted Sites), HaloTag bait fusion protein (UniProt Q8NI51)
T2 sequence: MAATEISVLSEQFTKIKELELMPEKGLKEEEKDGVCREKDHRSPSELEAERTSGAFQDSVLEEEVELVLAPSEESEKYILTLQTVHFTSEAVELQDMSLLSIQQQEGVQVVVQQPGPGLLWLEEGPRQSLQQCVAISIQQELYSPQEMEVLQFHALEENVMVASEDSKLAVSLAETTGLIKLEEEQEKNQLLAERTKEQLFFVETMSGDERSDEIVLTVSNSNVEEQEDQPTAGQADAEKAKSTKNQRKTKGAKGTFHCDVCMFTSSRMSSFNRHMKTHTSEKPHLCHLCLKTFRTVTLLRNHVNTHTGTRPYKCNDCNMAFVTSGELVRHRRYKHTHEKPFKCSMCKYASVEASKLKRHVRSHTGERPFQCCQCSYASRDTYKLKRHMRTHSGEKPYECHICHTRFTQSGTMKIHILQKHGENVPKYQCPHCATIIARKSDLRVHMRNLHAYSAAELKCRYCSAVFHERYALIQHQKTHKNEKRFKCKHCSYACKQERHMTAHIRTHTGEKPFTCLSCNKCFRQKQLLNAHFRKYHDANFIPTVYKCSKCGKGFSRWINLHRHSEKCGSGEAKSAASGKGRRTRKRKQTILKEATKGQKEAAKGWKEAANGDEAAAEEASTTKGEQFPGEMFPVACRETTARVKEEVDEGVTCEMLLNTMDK

[3] = target: T3, MBD1v1, HaloTag bait fusion protein (UniProt Q9UIS9)
T3 sequence: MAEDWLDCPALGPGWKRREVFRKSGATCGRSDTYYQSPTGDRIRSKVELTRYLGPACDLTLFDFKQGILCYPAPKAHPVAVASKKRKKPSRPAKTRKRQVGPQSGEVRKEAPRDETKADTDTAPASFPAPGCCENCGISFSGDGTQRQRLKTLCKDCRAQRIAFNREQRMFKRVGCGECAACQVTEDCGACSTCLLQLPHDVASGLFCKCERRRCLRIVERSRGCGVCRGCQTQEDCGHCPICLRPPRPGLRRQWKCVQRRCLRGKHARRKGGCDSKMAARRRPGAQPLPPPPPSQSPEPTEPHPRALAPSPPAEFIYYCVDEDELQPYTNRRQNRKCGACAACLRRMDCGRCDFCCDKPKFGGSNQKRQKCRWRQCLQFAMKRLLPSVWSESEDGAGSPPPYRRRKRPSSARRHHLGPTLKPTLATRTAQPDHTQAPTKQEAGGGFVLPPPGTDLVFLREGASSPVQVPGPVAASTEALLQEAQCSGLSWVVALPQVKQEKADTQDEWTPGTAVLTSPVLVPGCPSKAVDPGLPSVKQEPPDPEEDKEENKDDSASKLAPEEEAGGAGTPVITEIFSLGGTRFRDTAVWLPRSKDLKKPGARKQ

[4] = target: Sp1, HaloTag bait fusion protein (UniProt P08047)

Row | Substance | binding [1] | binding [2] | binding [3] | binding [4]
1 | Sp1, [35S]-L-methionine labeled prey protein (from UniProt P08047 1-785) | binds | binds weakly | binds weakly | –
2 | human TATA binding protein (hTBP), full length, [35S]-L-methionine labeled prey protein (from UniProt P20226 1-339) | binds | binds | – | binds
